Test results published in PMC3033365.
No constants are given. Whether binding was seen depends on the method and setting. In cells and extracts the contact can be indirect. Some entries that bind do so weakly or less than the wild type.

Protein sequences, listed by entry. Tags and fused reporters are not part of them. Residues count along the entry.
UniProt O14964: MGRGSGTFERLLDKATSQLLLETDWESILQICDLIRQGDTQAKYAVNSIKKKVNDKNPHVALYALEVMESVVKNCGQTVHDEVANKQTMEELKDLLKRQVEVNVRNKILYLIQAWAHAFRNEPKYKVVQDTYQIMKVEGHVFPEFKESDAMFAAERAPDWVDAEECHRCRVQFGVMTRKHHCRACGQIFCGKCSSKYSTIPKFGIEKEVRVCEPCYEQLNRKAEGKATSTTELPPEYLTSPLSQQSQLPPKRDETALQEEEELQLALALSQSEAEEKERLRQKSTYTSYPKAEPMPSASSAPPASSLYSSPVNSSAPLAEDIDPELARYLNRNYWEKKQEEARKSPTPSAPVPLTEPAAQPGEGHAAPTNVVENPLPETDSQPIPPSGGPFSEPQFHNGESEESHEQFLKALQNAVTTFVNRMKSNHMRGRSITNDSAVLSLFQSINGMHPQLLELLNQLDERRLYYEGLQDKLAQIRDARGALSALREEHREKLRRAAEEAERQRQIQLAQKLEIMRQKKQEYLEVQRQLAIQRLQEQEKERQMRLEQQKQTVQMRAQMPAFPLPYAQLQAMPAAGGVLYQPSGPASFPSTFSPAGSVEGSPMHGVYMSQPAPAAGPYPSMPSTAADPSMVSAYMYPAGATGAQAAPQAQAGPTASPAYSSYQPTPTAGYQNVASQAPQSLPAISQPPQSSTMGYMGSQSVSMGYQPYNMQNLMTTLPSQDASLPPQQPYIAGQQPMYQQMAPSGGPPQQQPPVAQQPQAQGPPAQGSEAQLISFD
UniProt Q10589, residues 1-161: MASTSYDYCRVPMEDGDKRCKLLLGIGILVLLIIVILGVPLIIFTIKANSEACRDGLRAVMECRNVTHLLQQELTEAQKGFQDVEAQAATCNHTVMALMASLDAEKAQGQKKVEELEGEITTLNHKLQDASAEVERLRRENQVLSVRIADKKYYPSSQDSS
UniProt P05923: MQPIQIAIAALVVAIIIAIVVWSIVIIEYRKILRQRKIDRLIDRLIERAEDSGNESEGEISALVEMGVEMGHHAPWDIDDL

Biological target: HRS fused to SBP-CBP tags (hepatocyte growth factor-regulated tyrosine kinase substrate, ESCRT-0 component) (UniProt O14964)
Experiment: pull-down; SBP-CBP-HRS co-expressed with Flag-BST-2 and/or HA-Vpu in HEK 293T cells; lysate 24 h after transfection; two consecutive rounds (streptavidin resin, elution, calmodulin resin); western blot with antibodies to HRS, HA and Flag

Substance: Flag-tagged BST-2 (bone marrow stromal antigen 2, tetherin) (from UniProt Q10589 1-161)
- binding: binds

Substance: HA-tagged Vpu (HIV-1 accessory protein Vpu) (from UniProt P05923 1-81)
- binding: binds
